These are yes or no findings as the source states them, for the method shown. Binding calls can cover weak binding; strength is not graded here. Sequences can lack the tags named with a protein. In cells and extracts the contact can be indirect.
B1: GST-CHN-1 (enzyme, not shown: a dimerising Fc or GST)
chain: MSSGAEQHNTNGKKCYMNKRYDDAVDHYSKAIKVNPLPKYYQNRAMCYFQLNNLKMTEEDCKRALELSPNEVKPLYFLGNVFLQSKKYSEAISCLSKALYHNAVITNAPDIENALKRARHQKYEEEESKRIVQDVEFHTYLESLIEKDRQENSENPEELQRADMAKKRLTELTLATQEKRQNREVPEMLCGKITLELMKEPVIVPSGITYDREEIVQHLRRIGHFDPVTRKPLTENEIIPNYALKEVIEKFLDDNPWAKYEPGGMV
B2: GST-UFD-2 (enzyme, Caenorhabditis elegans, UniProt Q09349 1-984, looked up, not shown: a dimerising Fc or GST)
chain: MIEDEKAGLQPMDISDASVFFFQADVESKDFLTSLFDCEGKSDDRMLRYADAIIDVQNLNFDVSPQCLQSNIAEIITKFVLLSQDGSRRGLSRSFNFIDPDIIAGCREEDAIEFLLINFVRCHHELGKSGTSNCYKKTLESTRKAVFSVFVMIQRGYLESQLRSQHASLVFTKRLLEDTVSNVFLRTLVEYLASTDECDEDAITETFNPIFGILRSGIICQRFEDNKDEIVRQILRVMNLLLSIRLPSNGPRPLSNLLVNREDFLPTPSEKIQGREFGLMSFLGPFFSYGLESSARRPNHRVFVDCEEDARKYDGSVNTEQKLYFQRMDPIRTMLHQLMLPLASDQGSRNKTLRWIATIISTNDIRTRSHYDPSDVLCDHYMTNFLSVMYMFSEKIDLSKIIVDYPFLPSSLINISKETRLKMDESGAVAFASQFADRPDEYHFSTVCFFLTIAAQRLVIPPLMNQISEYSRHLKELKHKINALKEKLNTVSGFERAEVEKKLNYETEHWKLMSRHLLCVKTQAQDPALMASSMDFVDKQMKFILNLLCDNLDLLGDDSQLPTEVSQMFCALPEYFLEDALDFYIFAISNGMKLLMERNADWISRLTVLFTQYHYIKSPFLVSKLVRVLSSIQPPLWFNVVRLRMAQENLLMCMIKFYSDFEDNGDFYEKFNVRGNIQYMLEKMEEDMFYKGKFMDMARECGAEFIRFVNMVINDATWCIDESLSGLKSIHDVEKKMANKVEWDNTDQEIRNQDLGVYEEAKRKVKGWLGTAKSNLKLLLSITVNSPEPFRTPVLGERLAAMLNHNLSQLIGSKASELKVKDPRSYGWEPREFVSLLISIYLKLNMPAFVKYIAYDERTYSPEFFHNAIECMRKNSIVGFSQLESFEHLAEDVKKEYEAKAELEEEYDDVPEEFKDPIMDAIMVDPVKLPSGHVMDRAVIERHLLSTPNNPFNRAPLSHNELSPDSELKAKIQEWICQKRNSKK

Columns and labels:
[1] = target: FLAG-tagged UNC-45 (UNC-45^FLAG) (Caenorhabditis elegans); experiment: GST pull-down
[2] = target: FLAG-tagged UNC-45 (UNC-45^FLAG) (Caenorhabditis elegans); experiment: summary sentence of Example 7 on the earlier pull-down
[3] = target: FLAG-tagged UNC-45 (UNC-45^FLAG) (Caenorhabditis elegans); experiment: GST pull-down with glutathione-Sepharose beads

Binder	binding [1]	binding [2]	binding [3]
B1	binds	binds	binds
B2			binds
